# Counter-ions that a name gives are not always drawn. ± gives the standard deviation of the averaged measurements. This is one part of the list. Single values are uncertain here, since repeats match poorly.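 The A. baumannii clinical isolates were selected for resistance to the partner antibiotic; the screen seeks drugs that restore its effect. Background from coloured compounds is removed by subtracting the start-of-incubation reading.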
# Tested on: Acinetobacter baumannii WP-487
# Assay: percent growth inhibition of drug + antibiotic vs DMSO control; higher = more growth inhibition
# Settings: antibiotic (0.125x MIC): colistin
SMILES,percent growth inhibition (7 µM) [%],percent growth inhibition (20 µM) [%]
CC/C(=C(/CC)c1ccc(O)cc1)c1ccc(O)cc1 [Diethylstilbestrol],-4.27 ± 6.7,50 ± 71
Cc1cccc(C)c1NC(=O)C(C)N (configuration not stated) [Tocainide hydrochloride],-3.91 ± 5,45.7 ± 66
Clc1ccccc1C(c1ccccc1)(c1ccccc1)n1ccnc1 [Clotrimazole],52.5 ± 55,52.7 ± 54
CCSc1ccc2c(c1)N(CCCN1CCN(C)CC1)c1ccccc1S2 [Thiethylperazine dimalate],51 ± 56,53.2 ± 54
CN(C)CCCN1c2ccccc2Sc2ccc(C(F)(F)F)cc21 [Triflupromazine hydrochloride],2.89 ± 5.7,58.8 ± 58
CCCCc1oc2ccccc2c1C(=O)c1cc(I)c(OCCN(CC)CC)c(I)c1 [Amiodarone hydrochloride],49.5 ± 58,48 ± 60
